The supplement of paper PMC10849652
The list shows a part of the results.

Chains of the proteins cited; added tags and fusions are not shown. Lines headed by an entry give the natural chain unless they say otherwise; changes in a name come on top.
UniProt Q01196, whole entry, looked up: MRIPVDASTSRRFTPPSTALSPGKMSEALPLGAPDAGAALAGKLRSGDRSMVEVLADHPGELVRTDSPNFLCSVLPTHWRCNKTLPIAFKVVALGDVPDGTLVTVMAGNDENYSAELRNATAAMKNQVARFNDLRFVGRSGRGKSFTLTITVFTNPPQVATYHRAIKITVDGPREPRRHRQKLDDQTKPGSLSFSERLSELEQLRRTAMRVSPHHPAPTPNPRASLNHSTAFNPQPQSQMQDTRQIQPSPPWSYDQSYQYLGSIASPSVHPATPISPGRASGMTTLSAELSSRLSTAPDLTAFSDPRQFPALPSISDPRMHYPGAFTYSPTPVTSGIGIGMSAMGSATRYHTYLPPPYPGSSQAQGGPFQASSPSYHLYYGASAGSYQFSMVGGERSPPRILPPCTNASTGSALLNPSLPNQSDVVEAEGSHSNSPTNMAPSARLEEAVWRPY
UniProt Q9HCY8: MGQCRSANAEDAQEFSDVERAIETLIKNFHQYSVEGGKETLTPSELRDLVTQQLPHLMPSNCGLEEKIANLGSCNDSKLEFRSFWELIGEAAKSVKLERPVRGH
UniProt Q9HB90, whole entry, looked up: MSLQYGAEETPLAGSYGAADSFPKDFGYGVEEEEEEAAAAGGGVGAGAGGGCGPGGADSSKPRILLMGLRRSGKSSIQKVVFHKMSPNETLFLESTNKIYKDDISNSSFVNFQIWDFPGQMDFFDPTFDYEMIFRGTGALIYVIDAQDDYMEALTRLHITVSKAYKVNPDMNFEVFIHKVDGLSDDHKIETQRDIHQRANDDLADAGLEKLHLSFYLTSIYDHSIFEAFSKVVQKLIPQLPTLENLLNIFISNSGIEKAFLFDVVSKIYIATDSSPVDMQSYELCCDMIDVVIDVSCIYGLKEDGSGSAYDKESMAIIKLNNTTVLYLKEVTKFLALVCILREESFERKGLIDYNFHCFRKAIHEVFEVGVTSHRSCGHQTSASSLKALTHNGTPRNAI
UniProt Q86SG5: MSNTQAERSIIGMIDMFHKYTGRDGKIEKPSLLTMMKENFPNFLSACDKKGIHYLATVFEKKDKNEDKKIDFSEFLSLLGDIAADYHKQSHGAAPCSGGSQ
UniProt Q9BZR6: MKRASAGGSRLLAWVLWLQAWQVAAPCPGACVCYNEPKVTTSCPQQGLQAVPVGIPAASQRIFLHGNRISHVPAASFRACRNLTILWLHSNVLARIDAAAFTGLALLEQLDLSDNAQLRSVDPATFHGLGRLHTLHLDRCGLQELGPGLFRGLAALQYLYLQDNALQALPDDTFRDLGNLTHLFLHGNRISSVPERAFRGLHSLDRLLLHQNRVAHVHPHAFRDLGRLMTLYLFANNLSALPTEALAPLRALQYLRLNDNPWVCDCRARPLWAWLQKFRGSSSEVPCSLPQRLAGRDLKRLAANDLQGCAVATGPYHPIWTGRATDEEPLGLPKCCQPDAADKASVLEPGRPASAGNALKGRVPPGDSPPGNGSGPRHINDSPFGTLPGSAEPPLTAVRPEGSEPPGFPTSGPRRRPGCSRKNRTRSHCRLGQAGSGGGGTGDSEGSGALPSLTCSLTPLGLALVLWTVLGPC
UniProt Q9UBS0: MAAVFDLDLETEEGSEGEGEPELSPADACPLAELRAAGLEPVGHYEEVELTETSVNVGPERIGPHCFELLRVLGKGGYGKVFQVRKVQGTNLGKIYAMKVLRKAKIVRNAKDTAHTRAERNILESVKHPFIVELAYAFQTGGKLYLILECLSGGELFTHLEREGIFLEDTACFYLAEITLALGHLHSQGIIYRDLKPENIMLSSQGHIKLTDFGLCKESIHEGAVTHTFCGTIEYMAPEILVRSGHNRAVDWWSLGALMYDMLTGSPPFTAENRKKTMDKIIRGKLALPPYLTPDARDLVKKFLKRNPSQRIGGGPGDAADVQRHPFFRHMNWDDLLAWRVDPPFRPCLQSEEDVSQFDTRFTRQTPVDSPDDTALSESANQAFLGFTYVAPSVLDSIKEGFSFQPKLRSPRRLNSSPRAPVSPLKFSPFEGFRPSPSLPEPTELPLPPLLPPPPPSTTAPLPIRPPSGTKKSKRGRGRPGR
UniProt Q96C34: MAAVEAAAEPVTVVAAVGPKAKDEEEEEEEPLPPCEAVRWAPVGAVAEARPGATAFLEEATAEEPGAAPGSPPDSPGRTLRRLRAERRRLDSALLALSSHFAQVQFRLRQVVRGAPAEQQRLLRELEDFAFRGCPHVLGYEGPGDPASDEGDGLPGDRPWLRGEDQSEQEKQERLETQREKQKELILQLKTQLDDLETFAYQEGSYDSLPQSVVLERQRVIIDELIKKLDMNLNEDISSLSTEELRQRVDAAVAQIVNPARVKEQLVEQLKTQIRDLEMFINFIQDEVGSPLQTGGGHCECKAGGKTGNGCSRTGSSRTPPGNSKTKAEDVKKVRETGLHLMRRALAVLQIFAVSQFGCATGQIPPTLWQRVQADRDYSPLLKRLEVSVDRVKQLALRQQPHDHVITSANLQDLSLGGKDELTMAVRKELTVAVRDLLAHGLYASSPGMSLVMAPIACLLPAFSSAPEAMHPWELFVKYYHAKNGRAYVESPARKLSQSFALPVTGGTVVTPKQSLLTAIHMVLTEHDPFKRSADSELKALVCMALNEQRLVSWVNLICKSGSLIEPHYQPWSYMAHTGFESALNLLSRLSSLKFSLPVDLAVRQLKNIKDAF
UniProt P60903, whole entry, looked up: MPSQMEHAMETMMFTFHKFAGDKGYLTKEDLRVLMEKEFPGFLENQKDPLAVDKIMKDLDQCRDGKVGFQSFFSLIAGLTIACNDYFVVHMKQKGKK
UniProt P19793: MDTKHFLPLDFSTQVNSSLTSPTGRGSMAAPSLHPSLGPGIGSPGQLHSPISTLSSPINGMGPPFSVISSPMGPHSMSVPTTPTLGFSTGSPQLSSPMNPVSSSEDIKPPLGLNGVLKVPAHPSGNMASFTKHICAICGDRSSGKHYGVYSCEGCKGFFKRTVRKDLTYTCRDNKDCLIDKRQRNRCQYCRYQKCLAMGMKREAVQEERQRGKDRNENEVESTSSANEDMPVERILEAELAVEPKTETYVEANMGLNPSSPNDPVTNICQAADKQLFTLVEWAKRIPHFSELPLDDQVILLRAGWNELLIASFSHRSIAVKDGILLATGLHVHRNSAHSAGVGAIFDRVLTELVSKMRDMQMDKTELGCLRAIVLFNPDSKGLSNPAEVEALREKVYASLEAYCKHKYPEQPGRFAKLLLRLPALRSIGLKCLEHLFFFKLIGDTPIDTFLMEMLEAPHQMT
UniProt Q86VV8: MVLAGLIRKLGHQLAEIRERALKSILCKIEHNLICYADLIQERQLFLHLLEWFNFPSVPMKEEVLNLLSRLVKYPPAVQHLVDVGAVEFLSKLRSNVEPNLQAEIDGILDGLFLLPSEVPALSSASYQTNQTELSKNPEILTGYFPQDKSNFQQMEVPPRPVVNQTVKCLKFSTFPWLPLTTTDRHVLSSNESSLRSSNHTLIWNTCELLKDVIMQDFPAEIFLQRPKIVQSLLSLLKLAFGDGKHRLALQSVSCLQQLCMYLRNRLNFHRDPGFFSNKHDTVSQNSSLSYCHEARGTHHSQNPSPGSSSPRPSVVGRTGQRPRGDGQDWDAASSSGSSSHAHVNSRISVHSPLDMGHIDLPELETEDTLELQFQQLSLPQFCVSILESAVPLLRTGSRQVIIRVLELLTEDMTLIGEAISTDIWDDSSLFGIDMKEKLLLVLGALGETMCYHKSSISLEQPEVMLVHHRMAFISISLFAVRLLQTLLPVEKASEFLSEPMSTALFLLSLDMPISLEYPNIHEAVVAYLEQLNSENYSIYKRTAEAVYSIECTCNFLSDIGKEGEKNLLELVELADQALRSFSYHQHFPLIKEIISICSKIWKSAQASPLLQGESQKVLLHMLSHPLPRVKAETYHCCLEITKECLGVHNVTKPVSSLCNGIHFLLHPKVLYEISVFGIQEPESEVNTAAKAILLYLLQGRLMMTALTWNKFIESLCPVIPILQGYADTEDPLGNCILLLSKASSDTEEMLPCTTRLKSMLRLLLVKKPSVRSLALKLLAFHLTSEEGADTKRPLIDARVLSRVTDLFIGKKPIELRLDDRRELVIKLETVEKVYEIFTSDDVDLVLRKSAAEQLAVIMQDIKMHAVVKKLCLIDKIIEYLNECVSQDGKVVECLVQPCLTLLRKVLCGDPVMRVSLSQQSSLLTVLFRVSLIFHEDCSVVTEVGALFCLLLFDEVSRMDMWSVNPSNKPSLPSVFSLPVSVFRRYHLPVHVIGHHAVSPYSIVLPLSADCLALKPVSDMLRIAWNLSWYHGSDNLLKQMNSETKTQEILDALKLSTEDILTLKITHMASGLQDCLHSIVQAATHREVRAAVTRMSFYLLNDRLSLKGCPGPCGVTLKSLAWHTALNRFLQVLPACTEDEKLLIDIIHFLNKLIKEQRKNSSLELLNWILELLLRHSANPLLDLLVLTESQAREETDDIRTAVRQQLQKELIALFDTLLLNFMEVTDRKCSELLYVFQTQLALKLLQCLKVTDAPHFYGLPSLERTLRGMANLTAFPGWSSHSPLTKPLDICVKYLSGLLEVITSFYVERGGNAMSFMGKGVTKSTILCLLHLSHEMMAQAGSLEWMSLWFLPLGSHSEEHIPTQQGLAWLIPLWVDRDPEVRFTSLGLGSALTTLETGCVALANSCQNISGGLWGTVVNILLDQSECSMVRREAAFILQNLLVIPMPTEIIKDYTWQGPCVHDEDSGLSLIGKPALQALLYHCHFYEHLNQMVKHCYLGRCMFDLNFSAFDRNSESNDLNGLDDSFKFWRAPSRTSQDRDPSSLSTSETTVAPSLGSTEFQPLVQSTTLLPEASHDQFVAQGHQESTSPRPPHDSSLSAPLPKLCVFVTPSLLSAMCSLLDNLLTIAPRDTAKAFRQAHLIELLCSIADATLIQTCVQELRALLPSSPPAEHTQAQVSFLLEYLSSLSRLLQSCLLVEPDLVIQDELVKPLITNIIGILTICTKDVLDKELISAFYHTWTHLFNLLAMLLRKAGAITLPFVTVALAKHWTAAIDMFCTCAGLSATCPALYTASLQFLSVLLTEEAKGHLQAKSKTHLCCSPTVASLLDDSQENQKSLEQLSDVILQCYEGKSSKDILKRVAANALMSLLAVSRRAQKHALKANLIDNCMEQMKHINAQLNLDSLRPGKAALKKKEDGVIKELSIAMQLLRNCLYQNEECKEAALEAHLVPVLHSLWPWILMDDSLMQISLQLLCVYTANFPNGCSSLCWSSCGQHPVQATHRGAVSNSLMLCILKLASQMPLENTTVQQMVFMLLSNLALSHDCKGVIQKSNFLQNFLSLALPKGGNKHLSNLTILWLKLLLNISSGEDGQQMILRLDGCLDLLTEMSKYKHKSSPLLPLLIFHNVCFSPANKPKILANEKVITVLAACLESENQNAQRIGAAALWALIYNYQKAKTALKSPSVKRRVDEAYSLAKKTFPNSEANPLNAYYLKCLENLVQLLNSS
UniProt Q7L099: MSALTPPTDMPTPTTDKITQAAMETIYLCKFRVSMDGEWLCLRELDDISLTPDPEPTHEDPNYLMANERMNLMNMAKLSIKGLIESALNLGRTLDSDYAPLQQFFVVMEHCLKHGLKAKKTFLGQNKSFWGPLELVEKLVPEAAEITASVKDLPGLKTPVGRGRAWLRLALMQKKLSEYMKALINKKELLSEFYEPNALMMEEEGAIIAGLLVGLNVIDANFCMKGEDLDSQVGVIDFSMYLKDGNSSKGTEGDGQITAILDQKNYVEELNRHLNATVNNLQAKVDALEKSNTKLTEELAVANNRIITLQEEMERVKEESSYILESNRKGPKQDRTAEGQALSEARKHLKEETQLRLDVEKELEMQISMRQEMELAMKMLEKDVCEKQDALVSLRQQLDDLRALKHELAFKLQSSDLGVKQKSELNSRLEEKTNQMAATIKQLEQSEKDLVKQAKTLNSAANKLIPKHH

compound: O=C(CCCCCCC(=O)Nc1ccccc1)NO [vorinostat]; experiment: log2 fold change, soluble protein after heating vs DMSO (PISA); higher = thermal stabilisation; K562 lysate, 10 uM; active = over 0.2 and 3.5 SD of the protein, either way, in both replicates (recomputed)
Outline: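 Thermal stability, expressed as log-two fold change relative to solvent controls, is given from duplicates. Crude K562 extract in PBS pH 7.4 with 1 mM MgCl2, at 1 mg/mL protein, was treated with 10 μM compound for 30 min and heated in aliquots for 3 min across 48°C-58°C. After pooling, adjustment to 0.5% NP-40 at 4°C and centrifugation at 21,000xg for 90 min, supernatant protein was measured by TMTpro 16plex LC-MS/MS with channel sums equalised.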

| Target | log2 fold change |
| --- | --- |
| RPS21 (UniProt P63220) | inactive: 0.036 |
| RUNX1 isoform 8 (UniProt Q01196) | inactive: -0.17 |
| S100A14 (UniProt Q9HCY8) | inactive: -0.199 |
| RRAGC (UniProt Q9HB90) | inactive: 0.088 |
| S100A7A (UniProt Q86SG5) | inactive: 0.461 |
| RTN4R (UniProt Q9BZR6) | inactive: 0.351 |
| RTN3 isoform 5 (UniProt O95197) | inactive: -0.372 |
| RSL24D1 (UniProt Q9UHA3) | inactive: 0.011 |
| RPS27 (UniProt P42677) | inactive: 0.058 |
| RPS6KB2 (UniProt Q9UBS0) | inactive: -0.287 |
| RPS15 (UniProt P62841) | inactive: 0.156 |
| RUNDC1 (UniProt Q96C34) | inactive: -0.335 |
| RSBN1 (UniProt Q5VWQ0) | inactive: -0.097 |
| RPLP0P6 (UniProt Q8NHW5) | inactive: 0.123 |
| S100A10 (UniProt P60903) | inactive: -0.037 |
| RYR1 (UniProt P21817) | inactive: 0.066 |
| RPL7A (UniProt P62424) | inactive: 0.084 |
| S100A6 (UniProt P06703) | inactive: 0.136 |
| RXRA (UniProt P19793) | inactive: -0.154 |
| RSL1D1 (UniProt O76021) | inactive: 0.049 |
| RTTN (UniProt Q86VV8) | active: -0.607 |
| RUFY3 isoform 2 (UniProt Q7L099) | inactive: 0.119 |
| RPS11 (UniProt P62280) | inactive: 0.06 |

Quoted from the listing for reference:

| Target | log2 fold change |
| --- | --- |
| RTTN (UniProt Q86VV8) | active: -0.607 |
| RUFY3 isoform 2 (UniProt Q7L099) | inactive: 0.119 |
